According to patent US20240115742A1, “FLUORINATED FIBERS FOR MULTIMODAL 1H AND 19F MRI, ULTRASOUND, FLUORESCENCE DETECTION AND CONFORMATIONAL AND TEMPERATURE DETECTION BY 19F MRS” (New York University, priority 2022, published 2024):

Legend:
Type in all cases: physicochemical
[1] = Passive microrheology (multiple particle tracking); conditions: 2 mM, 4 °C
Protocol: Microrheology. Protein was concentrated to 2 mM, as measured by BCA assay, and immediately aliquoted 27.7 μL into a 200 μL PCR tube. 1% v/v (or 0.3 μL) of […] red polystyrene fluorometric beads (FluoSpheres) were then added to the sample. A glass capillary tube was then loaded with sample by capillary action and sealed to prevent evaporation while being affixed to a microscopy slide using two-component fast-curing epoxy (JB Weld). Samples were then imaged at 0 h as a starting measurement and then every 12 h using a Leica DMI4000b inverted microscope equipped with a Leica DFC310 FX 1.4 megapixel camera at 40× magnification with 2×2 binning. Between imaging, slides were incubated on a rotisserie at 8 rpm to prevent sedimentation of the fluorometric beads. Each image series was recorded for a total of 300 frames with a lag time (i) of 0.037 s between each frame. Relaxation exponents i.e. the logarithmic slopes of particle mean-squared displacements (MSDs) with respect to lag time as determined by multiple particle tracking (MPT) analysis were used to determine when equilibration of the hydrogel was complete and measurements were no longer recorded (60 h in this case). Images were stacked and converted to grayscale in MATLAB (Mathworks, R2021a) using code developed in-house, with MPT then being employed using MATLAB code developed and modified by Dufresene, Kilfoil, Blair, and O'Neill as described previously.
Gelation kinetics of the hydrogels were assessed using passive microrheology (FIG. 61a-e). Time to gelation was measured immediately after concentration to 2 mM at 4° C. by incubating with 1 μm fluorescent tracer beads added to the protein in solution state at a final concentration of 1% (v/v). […] Mean square displacements (MSDs) of bead trajectories were analyzed periodically per the span of respective protein gelation times. An initial MSD-τ curve corresponding to a solution at 1.00 μm^2 s^−1 (consistent with Brownian motion) was used as the master solution curve and the final MSD-τ curve measured per protein gelation was selected as the master gel curve. Intermediate MSD-τ curves measured were superimposed onto either the master solution or master gel curve using horizontal and vertical shift factors, a and b, respectively. The window of sol-gel transition was determined between where a divergence in superposition occurred for each protein gelation.
Microrheology. Microrheology was used to assess gelation kinetics as described previously. Immediately after concentration to 2 mM, 29.7 uL were aliquoted with 0.3 uL of 1 um diameter FluoSpheres and loaded into glass capillary tubes (VitroCom). Samples were then imaged using an inverted fluorescent microscope (ZEISS Microscopy) at 40× magnification with 2×2 binning. Samples were incubated at 4° C. on a rotisserie at 8 rpm between measurements and imaged incrementally at select time points. […] Images were stacked, converted to greyscale, and analyzed with multiple particle tracking (MPT) in MATLAB (Mathworks, R2021a). Prior to other experiments of hydrogels in the gel state, microrheology here was used to confirm its complete transition.

[2] = Tube inversion concentration-temperature phase diagram; conditions: bivariate linear regression
Protocol: Tube Inversion Test. Immediately after concentration to 2 mM, the protein was incubated at 4° C. over the course of two weeks after aliquoting 150 μL into a 2 mL Eppendorf tube. The samples were visually assessed for gelation by inverting the tubes at 12-hour time intervals thereafter, with gelled samples not flowing upon inversion.
Gelation. To study the relative gelation of Q2 as compared to the previously reported coiled-coil hydrogel, Q, protein was successfully expressed (FIG. 24), purified (FIG. 25), and concentrated to 2 mM (1% w/v) in Tris buffer (50 mM Tris, 500 mM NaCl) at pH 8.0. Purity of the protein was measured to be >99% by SDS-PAGE (FIG. 26) and concentration was measured by BCA assay. Immediately following concentration, the gelation process of Q2 was studied using the microrheology assay described previously following incubation at 4° C. Separately, 150 μL samples were aliquoted for tube inversion tests performed after 2 weeks of incubation for visual assessment of gelation over time at 4° C. (FIG. 19a-d) and at concentrations from 1 mM to 3.5 mM with temperatures 5° C. to 25° C. using 0.5 mM and 5° C. step sizes, respectively, to create a matrix-based phase diagram (FIG. 19e). Temperature and concentration ranges were selected based on preliminary tube-inversion testing at high and low ends of the ranges.
Thermoresponsiveness and material strength. UCST behavior of protein hydrogels was assessed by testing […] samples via tube inversion in 2 mL microtubes after incubation for two weeks at various temperatures and concentrations. Temperature conditions were modulated in the range of 5-40° C. The concentration range was modified depending on if precipitation was visually noticeable in the microtube at an earlier concentration, indicating a solubility limit to our phase diagram, as has been done previously. […] As done with Q2, the UCST of the hydrogels was determined using a bivariate linear relationship for the extent of gelation where tubes that passed gelation by tube inversion were assigned a value of 1 (shown in black in FIG. 52a and FIG. 64a-d) and tubes that failed gelation by tube inversion (shown in red in FIG. 52a and FIG. 64a-d) were assigned a value of 0. The heatmap in FIG. 52a and FIG. 64a-d was used to denote the range of extent of gelation where the equation was employed to solve for the UCST using the solubility limit and solving for an extent of gelation, η, value of 0.5. The UCSTs (FIG. 52b) for the hydrogels studied here were 13.0° C., 35.9° C., 33.6° C., 17.5° C., and 22.9° C. for Q3-7, respectively, as compared to 17.0° C. for Q and 22.0° C. for Q2 found previously. […]
Tube Inversion. Binary sol-gel behavior was assessed using tube inversion. […]

[3] = Circular dichroism wavelength scans; conditions: for θ208 / θ222 / θ222/θ208: 25 °C, 15 μM, pH 4.0

Substance	critical gelation time, tc (tgel) [1] [h]	critical relaxation exponent, nc [1]	concentration coefficient of gelation [2] [mM⁻¹]	temperature coefficient of gelation [2] [°C^−1]	θ208 [3]	θ222 [3]	θ222/θ208 [3]	MRE minimum at 208 nm ([3]; fibers pH 4.0, text)	MRE minimum at 222 nm ([3]; fibers pH 4.0, text)	MRE at 208 nm ([3]; Q2 in solution, 4 °C)	MRE at 222 nm ([3]; Q2 in solution, 4 °C)	222/208 ratio ([3]; Q2 post-gelation)	MRE single minimum at 227 nm ([3]; Q2 post-gelation)
Q: rationally designed pentameric coiled-coil derived from C, SEQ ID NO: 23 (MRGSHHHHHHGSIEGRVKEITFLKNTAPQMLRELQETNAALQDVRELLRQQSKL) [reference compound]	70.4 ± 0.1	0.53±0.03	0.247	−0.091	−10,000 ± 6,000 mdeg · cm^2 · dmol^−1	−8,000 ± 3,000 mdeg · cm^2 · dmol^−1	1.04 ± 0.57	−10,000±6,000 deg·cm^2·dmol^−1	−8,000±3,000 deg·cm^2·dmol^−1	–	–	–	–
Q2: coiled-coil protein redesigned from Q for reduced lateral assembly, SEQ ID NO: 11 (MRGSHHHHHHGSIEGRVKELLFLKKTAEQMLEELKETNKALHDVRHLLENQSKL) [Protein Q2]	26.6 ± 0.5	0.48±0.001	0.000251	−0.050	−19,000 ± 2,000 mdeg · cm^2 · dmol^−1	−17,000 ± 2,000 mdeg · cm^2 · dmol^−1	0.91 ± 0.05	–	–	−3,400±1,000 deg·cm^2·dmol^−1	−2,600±600 deg·cm^2·dmol^−1	3.35±0.37	−3,600±800 deg·cm^2·dmol^1
